Source: PubChem BioAssay AID1259254 (NCATS, 2017)

Screen: 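Genome-wide screen for genes that prevent DNA re-replication in cancer cells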 (primary screen)
Cells: human HCT116 colorectal cancer cells
Reagent: single siRNA against human genes
Time to read-out: 3 days
Measured: 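Nuclei stained with Hoechst and imaged; cell-cycle phase assigned by DNA content; G2 share scaled per plate, non-targeting siRNA 0%, GMNN siRNA 100%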
Direction: G2 robust z-score: higher = more G2 cells, more excess DNA replication
Active means: 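Active siRNAs have a G2 robust z of 5 or more median absolute deviations over the median, which in these data means about 38% or higher of GMNN control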
Shown is an unselected part of about 59,000 deposited reagents. About 1,550 of all reagents (2.6%) were called active. 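G2 share is only a proxy for re-replication; each gene was hit by three separate siRNAs, and active genes were retested.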 The numbers tell different reagents against one gene apart. Further read-outs or replicates are left out here. The record does not give: the amount of reagent.

Against RABL6 #1 the deposit lists G2 robust z-score 1.37; inactive.
Against RABL6 #2, the values are G2 robust z-score 1.54; inactive.
Depletion of RABL6 #3 resulted in: G2 robust z-score 0.318; inactive.
TSPAN6 #1 scored G2 robust z-score -0.0373; inactive.
For TSPAN6 #2 the deposit lists G2 robust z-score 2.54; inactive.
TSPAN6 #3 showed G2 robust z-score -0.183; inactive.
EGLN3 #1 scored G2 robust z-score 0.656; inactive.
Against EGLN3 #2 the deposit lists G2 robust z-score 1.62; inactive.
EGLN3 #3 gave G2 robust z-score 0.369; inactive.
Against DESI1 #1 the deposit lists G2 robust z-score -0.37; inactive.
DESI1 #2 gave G2 robust z-score -0.498; inactive.
DESI1 #3 scored G2 robust z-score 1.49; inactive.

A stretch from the list above:
DESI1 #1 | G2 robust z-score: -0.37; activity call: inactive
DESI1 #2 | G2 robust z-score: -0.498; activity call: inactive

The listing continues.
ATP7B #1 gave G2 robust z-score 0.00282; inactive.
ATP7B #2 gave G2 robust z-score -1.51; inactive.
Against ATP7B #3 the deposit lists G2 robust z-score -0.0905; inactive.
Against CLPSL2 #1 the deposit lists G2 robust z-score 0.272; inactive.
For CLPSL2 #2 the deposit lists G2 robust z-score 0.264; inactive.
After knock-down of CLPSL2 #3 the results were G2 robust z-score -0.902; inactive.
